Some entries share one result that the patent states for a list of compounds. At least one compound was matched to its structure with a doubt left.
Key:
Format in all cases: in vivo
Aphis gossypii [1] = experiment: Test Example 1: spray on cucumber seedling inoculated with Aphis gossypii; settings: 500 ppm active ingredient, 20 ml sprayed on cucumber seedling, six days after spraying
Nilaparvata lugens [2] = experiment: Test Example 3: spray on rice seedling, Nilaparvata lugens larvae released; settings: 500 ppm, 10 ml sprayed on rice seedling, third-fourth instar larvae, after 6 days at 25° C.
Bemisia tabaci = experiment: Test Example 5: spray on tomato seedling with Bemisia tabaci instar larvae; settings: 500 ppm, 20 ml/cup sprayed on tomato seedling, after 7 days at 25° C.
Nilaparvata lugens [3] = experiment: Test Example 4: foot drench of rice seedling, Nilaparvata lugens larvae released; settings: 500 ppm, 5 ml foot drench of rice seedling, 7 days, then larvae released and 6 days
Aphis gossypii [4] = experiment: Test Example 2: foot drench of cucumber seedling, then inoculation with Aphis gossypii; settings: 500 ppm, 5 ml foot drench of cucumber seedling, 7 days at 25° C., then inoculation and 6 days

Row | SMILES | control value (Aphis gossypii [1]) [%] | control value (Nilaparvata lugens [2]) [%] | control value (Bemisia tabaci) [%] | control value (Nilaparvata lugens [3]) [%] | control value (Aphis gossypii [4]) [%]
1 | CCS(=O)(=O)c1nccn1-c1nc2cc(C(F)(F)F)cnc2n1C [compound 2] | ≥ 90 |  |  |  | 
2 | CCS(=O)(=O)c1ccsc1-c1nc2cc(SC(F)(F)F)cnc2n1C [compound 4] | ≥ 90 |  |  |  | 
3 | CCSc1cc(C(F)(F)F)sc1-c1nc2cc(C(F)(F)F)cnc2n1C [compound 5] |  | ≥ 90 | ≥ 90 | ≥ 90 | 
4 | CCS(=O)(=O)c1cc(C(F)(F)F)sc1-c1nc2cc(C(F)(F)F)cnc2n1C [compound 6] | ≥ 90 |  |  |  | ≥ 90
5 | CCSc1cc(C(F)(F)F)sc1-c1nc2cc(SC(F)(F)F)cnc2n1C [compound 7] |  | ≥ 90 |  |  | 
6 | CCS(=O)(=O)c1cc(C(F)(F)F)sc1-c1nc2cc(SC(F)(F)F)cnc2n1C [compound 8] | ≥ 90 |  | ≥ 90 | ≥ 90 | 
7 | CCSc1sccc1-c1nc2cc(C(F)(F)F)cnc2n1C [compound 13] | ≥ 90 | ≥ 90 |  |  | 
8 | CCSc1ccsc1-c1nc2cc(C(F)(F)F)cnc2n1C [compound 15] | ≥ 90 |  |  |  | 

Source: US9120792B2, “Fused heterocyclic compound” (Sumitomo Chemical Company, Limited, priority 2012, dated 2015)
